The comparison behind a weaker result is the experiment's own reference, which may not be listed here. Tags and fusion partners may be left off the protein sequences shown.

We go through one sequence from PMC2672303, “Dosage Effects of Cohesin Regulatory Factor PDS5 on Mammalian Development: Implications for Cohesinopathies”.

In the data set the target is T1, C-PDS5B-His R1292Q (Homo sapiens) (UniProt Q9NTI5).
T1 sequence (looked up): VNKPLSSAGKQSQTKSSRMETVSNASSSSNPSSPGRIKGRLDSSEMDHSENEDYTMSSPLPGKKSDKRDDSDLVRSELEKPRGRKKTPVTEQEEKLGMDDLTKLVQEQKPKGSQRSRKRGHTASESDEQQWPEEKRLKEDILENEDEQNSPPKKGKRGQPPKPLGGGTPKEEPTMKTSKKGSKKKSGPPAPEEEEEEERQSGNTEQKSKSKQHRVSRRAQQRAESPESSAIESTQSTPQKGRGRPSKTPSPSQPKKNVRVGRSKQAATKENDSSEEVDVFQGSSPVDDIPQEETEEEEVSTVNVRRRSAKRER
Description: EMSA. The settings on record: 5-40 ng protein, decreased compared to wild type; EMSA: 20 ng protein (5-40 ng in Fig. 7E) with 2.25 pmol 32P probe, 25 C, 5 min, 6% polyacrylamide gel; protein dialyzed in 50 mM Tris pH 7.5, 0.5 mM EDTA, 100 mM NaCl; recombinant protein; residues 1134-1446; protein details: N-terminal HA, C-terminal 6xHis; label: 32P.

For “GGACTCCAGGTCCAGGACCGCTTTTTGCGCGCGCTTTTTGCGGGAGGTCCAGCTGTCCACCTCC (double strand) [T5-8-T5 probe]”, the binding result is “binds more weakly”.
